{"source": "PubChem BioAssay AID504791 | Drosophila RNAi Screening Center | 2011", "purpose": "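Genes of the fly required for silencing by miRNA, siRNA or endo-siRNA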 (primary screen)", "system": "Drosophila S2-derived reporter cells", "reagents": "long dsRNA against Drosophila genes, about 150-250 ng dsRNA per well (siRNA assay); about 80-120 ng (miRNA assay)", "duration": "about 5 days (siRNA assay); about 4 days (miRNA assay)", "treatment": "copper sulfate induction of reporters: 25 µM (siRNA assay); 200 mM stated (miRNA assay), 1-2 days before reading", "measurement": "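Per-well ratio of Renilla over firefly light, expressed relative to that plate's average ratio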", "direction": "siRNA reporter hit score: higher = 3 marks a strong hit with raised ratio; -3 a strong hit with lowered ratio", "active means": "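a well was a first-pass pick when its plate-scaled ratio rose above 1.5 (siRNA assay) or 1.6 (miRNA assay), or dropped below 0.6; a gene counted only if two separate dsRNAs agreed on retest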", "note": "In all, the deposit lists about 23,000 reagents; shown is a random part of those that have a named target and a result. Of all reagents, 199 (0.86%) got an active call. 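Plate-scaled ratios behind the calls are not deposited; printed light signals are raw; many rows marked increased or decreased are still called inactive.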"}
The first 3 entries, to show the layout:
{"gene": "CG18808", "amplicon": "DRSC08539", "stable assay Renilla, run 1 (luminescence)": 6260, "stable assay firefly, run 1 (luminescence)": 4.00e5, "call": "inactive"}
{"gene": "ppk", "amplicon": "DRSC03595", "stable assay Renilla, run 1 (luminescence)": 7487, "stable assay firefly, run 1 (luminescence)": 5.01e5, "call": "inactive"}
{"gene": "CG17721", "amplicon": "DRSC15253", "stable assay Renilla, run 1 (luminescence)": 6526, "stable assay firefly, run 1 (luminescence)": 4.04e5, "call": "inactive"}

Results, from the start:
{"gene": "CG18808", "amplicon": "DRSC08539", "stable assay Renilla, run 1 (luminescence)": 6260, "stable assay firefly, run 1 (luminescence)": 4.00e5, "call": "inactive"}
{"gene": "ppk", "amplicon": "DRSC03595", "stable assay Renilla, run 1 (luminescence)": 7487, "stable assay firefly, run 1 (luminescence)": 5.01e5, "call": "inactive"}
{"gene": "CG17721", "amplicon": "DRSC15253", "stable assay Renilla, run 1 (luminescence)": 6526, "stable assay firefly, run 1 (luminescence)": 4.04e5, "call": "inactive"}
{"gene": "CG4036", "amplicon": "DRSC02735", "stable assay Renilla, run 1 (luminescence)": 6086, "stable assay firefly, run 1 (luminescence)": 3.97e5, "call": "inactive"}
{"gene": "Phs", "amplicon": "DRSC10827", "stable assay Renilla, run 1 (luminescence)": 8268, "stable assay firefly, run 1 (luminescence)": 3.48e5, "call": "inactive"}
{"gene": "Toll-6", "amplicon": "DRSC11304", "stable assay Renilla, run 1 (luminescence)": 6764, "stable assay firefly, run 1 (luminescence)": 4.01e5, "call": "inactive"}
{"gene": "Parp16", "amplicon": "DRSC06597", "stable assay Renilla, run 1 (luminescence)": 5928, "stable assay firefly, run 1 (luminescence)": 2.79e5, "call": "inactive"}
{"gene": "KaiR1D", "amplicon": "DRSC15516", "stable assay Renilla, run 1 (luminescence)": 6958, "stable assay firefly, run 1 (luminescence)": 2.65e5, "call": "inactive"}
{"gene": "CG15717", "amplicon": "DRSC19684", "stable assay Renilla, run 1 (luminescence)": 6434, "stable assay firefly, run 1 (luminescence)": 5.80e5, "call": "inactive"}
{"gene": "Lmx1a", "amplicon": "DRSC09726", "stable assay Renilla, run 1 (luminescence)": 6483, "stable assay firefly, run 1 (luminescence)": 3.66e5, "call": "inactive"}
{"gene": "Lmx1a", "amplicon": "DRSC10275", "stable assay Renilla, run 1 (luminescence)": 4143, "stable assay firefly, run 1 (luminescence)": 2.09e5, "call": "inactive"}
{"gene": "Ir25a", "amplicon": "DRSC00462", "stable assay Renilla, run 1 (luminescence)": 7331, "stable assay firefly, run 1 (luminescence)": 4.09e5, "call": "inactive"}
{"gene": "CG6878", "amplicon": "DRSC10737", "stable assay Renilla, run 1 (luminescence)": 6862, "stable assay firefly, run 1 (luminescence)": 3.09e5, "call": "inactive"}
{"gene": "CG6118", "amplicon": "DRSC15968", "stable assay Renilla, run 1 (luminescence)": 5460, "stable assay firefly, run 1 (luminescence)": 2.58e5, "call": "inactive"}
{"gene": "CG6118", "amplicon": "DRSC23197", "stable assay Renilla, run 1 (luminescence)": 2452, "stable assay firefly, run 1 (luminescence)": 2.30e5, "call": "inactive"}
{"gene": "InR", "amplicon": "DRSC16717", "stable assay Renilla, run 1 (luminescence)": 8566, "stable assay firefly, run 1 (luminescence)": 4.30e5, "call": "inactive"}
{"gene": "dgt6", "amplicon": "DRSC14424", "stable assay Renilla, run 1 (luminescence)": 7691, "stable assay firefly, run 1 (luminescence)": 4.68e5, "call": "inactive"}
{"gene": "CG5359", "amplicon": "DRSC15780", "stable assay Renilla, run 1 (luminescence)": 6031, "stable assay firefly, run 1 (luminescence)": 5.28e5, "call": "inactive"}
{"gene": "Or85b", "amplicon": "DRSC16765", "stable assay Renilla, run 1 (luminescence)": 8031, "stable assay firefly, run 1 (luminescence)": 4.73e5, "call": "inactive"}
{"gene": "CG17385", "amplicon": "DRSC06664", "miRNA reporter change": "reporter ratio lowered past the hit cutoff", "stable assay Renilla, run 1 (luminescence)": 5828, "stable assay firefly, run 1 (luminescence)": 4.92e5, "call": "active"}
{"gene": "RpS26", "amplicon": "DRSC03420", "miRNA reporter change": "reporter ratio lowered past the hit cutoff", "stable assay Renilla, run 1 (luminescence)": 6695, "stable assay firefly, run 1 (luminescence)": 5.24e5, "call": "active"}
{"gene": "CG11737", "amplicon": "DRSC14364", "stable assay Renilla, run 1 (luminescence)": 6624, "stable assay firefly, run 1 (luminescence)": 3.93e5, "call": "inactive"}
{"gene": "CG9743", "amplicon": "DRSC16552", "stable assay Renilla, run 1 (luminescence)": 6307, "stable assay firefly, run 1 (luminescence)": 4.05e5, "call": "inactive"}
{"gene": "CG10927", "amplicon": "DRSC06014", "stable assay Renilla, run 1 (luminescence)": 8399, "stable assay firefly, run 1 (luminescence)": 2.77e5, "call": "inactive"}
{"gene": "Polr2E", "amplicon": "DRSC06100", "siRNA reporter hit score": -3, "stable assay Renilla, run 1 (luminescence)": 3712, "stable assay firefly, run 1 (luminescence)": 1.73e5, "call": "inactive"}
{"gene": "MED28", "amplicon": "DRSC15721", "stable assay Renilla, run 1 (luminescence)": 5838, "stable assay firefly, run 1 (luminescence)": 3.74e5, "call": "inactive"}
{"gene": "CG2854", "amplicon": "DRSC18595", "stable assay Renilla, run 1 (luminescence)": 5966, "stable assay firefly, run 1 (luminescence)": 3.81e5, "call": "inactive"}
{"gene": "CG17271", "amplicon": "DRSC15210", "stable assay Renilla, run 1 (luminescence)": 8458, "stable assay firefly, run 1 (luminescence)": 4.05e5, "call": "inactive"}
{"gene": "CG17271", "amplicon": "DRSC22629", "stable assay Renilla, run 1 (luminescence)": 2071, "stable assay firefly, run 1 (luminescence)": 1.99e5, "call": "inactive"}
{"gene": "CG17271", "amplicon": "DRSC22982", "stable assay Renilla, run 1 (luminescence)": 5104, "stable assay firefly, run 1 (luminescence)": 3.81e5, "call": "inactive"}
